Assay results: publication PMC7862700
The list shows a part of the results, in another mix than the full data. At the low end of the ranking, values are background and their order means little.

How the values were obtained:
Experiment in all cases: DAPPL (digital affinity profiling via proximity ligation, sequencing)
Conditions in all cases: 10 mM Tris-HCl pH 7.5, 50 mM NaCl, 1 mM DTT, 4% glycerol, room temperature, 30 min; GST-TFs on glutathione beads, 16-mer random dsDNA library, 0.1% …; high values mean tight binding; double strand, one strand shown; scale: fold enrichment (6-mer frequency, TF over GST control)
ELK1 = molecular target: T1, ELK1 (UniProt P19419)
T1 sequence: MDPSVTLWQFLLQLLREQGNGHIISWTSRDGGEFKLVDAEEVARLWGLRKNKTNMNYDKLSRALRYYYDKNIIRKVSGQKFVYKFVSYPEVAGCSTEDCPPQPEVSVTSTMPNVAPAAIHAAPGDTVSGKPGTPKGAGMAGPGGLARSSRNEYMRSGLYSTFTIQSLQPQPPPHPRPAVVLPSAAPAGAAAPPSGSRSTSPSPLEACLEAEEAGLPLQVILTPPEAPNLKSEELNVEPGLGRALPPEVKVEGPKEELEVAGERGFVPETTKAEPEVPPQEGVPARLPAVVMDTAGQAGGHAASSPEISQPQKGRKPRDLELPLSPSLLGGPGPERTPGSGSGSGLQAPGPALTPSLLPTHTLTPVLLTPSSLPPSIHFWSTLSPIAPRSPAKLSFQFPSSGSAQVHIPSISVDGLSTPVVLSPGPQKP

ELK3 = molecular target: T2, ELK3 (UniProt P41970)
T2 sequence: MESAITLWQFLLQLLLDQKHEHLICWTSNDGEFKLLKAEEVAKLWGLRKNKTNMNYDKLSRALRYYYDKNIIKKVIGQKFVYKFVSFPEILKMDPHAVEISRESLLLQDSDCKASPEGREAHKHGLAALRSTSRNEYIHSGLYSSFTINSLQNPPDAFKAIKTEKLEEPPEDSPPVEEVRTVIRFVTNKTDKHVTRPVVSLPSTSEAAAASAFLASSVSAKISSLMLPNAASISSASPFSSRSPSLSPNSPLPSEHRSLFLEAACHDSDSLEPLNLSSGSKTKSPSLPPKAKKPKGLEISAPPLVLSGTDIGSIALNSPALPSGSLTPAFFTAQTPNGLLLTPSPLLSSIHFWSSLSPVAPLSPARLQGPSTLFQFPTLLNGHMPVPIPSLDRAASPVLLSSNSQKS

SPIC = molecular target: T3, SPIC (UniProt Q8N5J4)
T3 sequence: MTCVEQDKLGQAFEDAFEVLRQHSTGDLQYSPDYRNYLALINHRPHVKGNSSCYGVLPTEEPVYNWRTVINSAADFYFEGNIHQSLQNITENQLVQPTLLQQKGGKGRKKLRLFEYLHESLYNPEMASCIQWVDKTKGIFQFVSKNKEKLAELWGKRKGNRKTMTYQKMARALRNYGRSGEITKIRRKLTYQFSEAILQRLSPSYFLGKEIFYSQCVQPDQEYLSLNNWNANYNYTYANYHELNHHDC

ETS2 = molecular target: T4, ETS2 (UniProt P15036)
T4 sequence: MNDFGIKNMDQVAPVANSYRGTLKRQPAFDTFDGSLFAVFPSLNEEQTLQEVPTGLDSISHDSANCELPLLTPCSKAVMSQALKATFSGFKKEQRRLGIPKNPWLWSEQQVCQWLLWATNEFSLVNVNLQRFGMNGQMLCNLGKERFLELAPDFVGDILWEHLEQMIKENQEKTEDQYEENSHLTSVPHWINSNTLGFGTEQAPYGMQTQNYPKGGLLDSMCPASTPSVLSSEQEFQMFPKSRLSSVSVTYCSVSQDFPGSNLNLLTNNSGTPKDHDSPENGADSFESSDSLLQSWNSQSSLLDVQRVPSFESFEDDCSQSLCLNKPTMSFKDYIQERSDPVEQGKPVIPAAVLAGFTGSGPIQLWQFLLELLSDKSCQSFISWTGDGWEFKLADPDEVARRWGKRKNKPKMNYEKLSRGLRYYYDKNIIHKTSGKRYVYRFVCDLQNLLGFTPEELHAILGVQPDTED

ETV3 = molecular target: T5, ETV3 (UniProt P41162-2)
T5 sequence: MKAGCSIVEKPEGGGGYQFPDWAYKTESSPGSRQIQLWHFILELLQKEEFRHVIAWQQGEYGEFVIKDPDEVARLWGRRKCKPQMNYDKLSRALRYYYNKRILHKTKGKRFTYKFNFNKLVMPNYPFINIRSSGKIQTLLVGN

| Sequence | binding signal (ELK1) | binding signal (ELK3) | binding signal (SPIC) | binding signal (ETS2) | binding signal (ETV3) |
| --- | --- | --- | --- | --- | --- |
| GGATAC | 0.946 | 0.929 | 0.971 | 0.996 |  |
| TCGCGA | 0.899 | 0.769 | 0.986 | 0.834 | 0.801 |
| CGCCGG | 1.21 | 1.08 | 0.908 | 0.936 |  |
| TCGCGG | 0.972 | 0.985 | 0.951 | 0.952 |  |
| TGGTGA | 1.04 | 0.953 | 1.02 | 0.933 | 0.96 |
| CCAAGC | 0.962 | 0.969 | 0.878 | 1.03 |  |
| AACAGA | 0.976 | 0.981 | 0.93 | 0.951 |  |
| GTTGAT | 1.12 | 0.982 | 1.17 | 0.897 |  |
| GTGCGC | 0.955 | 0.986 | 0.923 | 0.91 |  |
| ATAGAC | 0.989 | 0.928 | 0.863 | 0.974 |  |
| TGGAAG | 0.959 | 0.976 | 0.985 | 1.01 |  |
| GCGGCA | 0.883 | 0.937 | 0.797 | 0.868 | 0.877 |
| TGGCTG | 0.935 | 0.958 | 0.975 | 1.05 |  |
| ACAAAG | 0.993 | 1.04 | 0.987 |  | 0.996 |
| TCCATA | 1.3 | 1.35 | 1.3 |  | 1.22 |
| CGAACG | 0.907 | 0.984 | 1.11 |  | 0.905 |
| TCACGG | 0.976 |  | 1 |  | 0.97 |
| AAAGTC | 0.985 |  | 0.895 |  | 0.988 |
| TGGGCA | 0.97 |  | 0.928 |  | 0.985 |
| GCTACG | 1.22 |  | 1.12 |  | 1.05 |
| CAGCTA | 0.907 |  | 1.07 |  | 0.994 |

Limited to binding signal (ETS2), binding signal (ELK1) and binding signal (ETV3) (three entries from above):
Sequence,binding signal (ETS2),binding signal (ELK1),binding signal (ETV3)
TCGCGA,0.834,0.899,0.801
CGCCGG,0.936,1.21,
TCGCGG,0.952,0.972,

(continued)

| Sequence | binding signal (ELK1) | binding signal (ELK3) | binding signal (SPIC) | binding signal (ETS2) | binding signal (ETV3) |
| --- | --- | --- | --- | --- | --- |
| TAATGG | 1.35 |  | 1.34 |  | 1.28 |
| AAAGAT | 1.21 |  | 1.22 |  | 1.28 |
| AGCGCT | 0.96 |  | 0.897 |  | 1.01 |
| TCGAAC | 1.01 |  | 0.856 |  | 0.957 |
| AGGGCT | 0.989 |  | 0.984 |  | 1.06 |
| GAATGC | 0.968 | 0.911 | 0.954 |  | 0.947 |
| CCTGAA | 1.39 |  | 1.28 |  | 1.4 |
| CTTATT | 1.39 |  | 1.62 |  | 1.31 |
| ACGCGT | 0.919 | 0.951 | 0.985 |  | 0.947 |
| GCCTGG | 0.991 | 1.01 | 0.771 |  | 0.929 |
| CACAAG | 1.17 |  | 1.09 |  | 1.16 |
| TTAGGC | 0.996 | 0.902 | 1.08 |  | 0.95 |
| CGAATT | 1.1 |  | 1.25 |  | 1.22 |
| TCTCAT | 1.36 | 1.29 | 1.46 | 1.26 |  |
| TTGACG | 1.16 |  | 0.875 |  | 0.973 |
| GCATCT | 1.02 | 0.925 | 0.988 |  | 0.947 |
| CGCACG | 0.993 |  | 0.96 |  | 0.998 |
| GTTAGC | 0.957 | 0.864 | 0.93 |  | 0.863 |
| GCGATA | 0.977 |  | 0.912 |  | 0.994 |
| CACGAC | 1.29 |  | 1.26 |  | 1.15 |
| CAGTAT | 0.938 |  | 0.98 |  | 0.936 |

| Sequence | binding signal (ELK1) | binding signal (ELK3) | binding signal (SPIC) | binding signal (ETS2) | binding signal (ETV3) |
| --- | --- | --- | --- | --- | --- |
| GACGAC | 0.912 |  | 0.823 |  | 0.995 |
| GGCTTT | 0.959 |  | 0.994 |  | 0.973 |
| ACAAAA | 1.11 |  | 0.979 |  | 1.13 |
| TGTCAA | 0.981 | 0.998 | 0.886 |  | 1.08 |
| TTTCAA | 1.23 |  | 1.33 |  | 1.31 |
| CGAATG | 0.913 |  | 0.915 |  | 0.976 |
| GTCTCG | 1.37 | 1.37 | 1.21 |  | 1.33 |
| TCAGCC | 1.11 |  | 0.822 |  | 0.924 |
| ATTGAG | 1.12 | 0.959 | 0.915 |  | 0.992 |
| AAAGCT | 1.09 |  | 0.974 |  | 1.04 |
| ATCGCT | 1.09 | 1.1 | 0.985 |  | 1.05 |
| CACACA | 1.08 | 1.2 | 1.07 |  |  |
| ATGCAG | 1.04 | 0.953 | 0.996 |  |  |
| CTTGAA | 1.24 | 0.994 | 1.09 |  |  |
| CAGCTC | 0.935 | 0.992 | 1.06 |  |  |
| CGTTTA | 1.08 | 1.12 | 1.03 |  |  |
| CATCAC |  |  | 1.26 | 1.12 |  |
| TTTACC | 1.2 | 1.37 | 1.17 |  |  |
| ATGCGT | 0.996 | 0.937 | 1.07 |  | 0.975 |
| GGCTAT | 1.06 | 0.969 | 1.03 |  |  |
